## Library screening results

Measurements from “University of Dundee, Small-Polar-MMV Screening Library” (2021), ChEMBL document CHEMBL3988442.

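Viability assay of Plasmodium falciparum sporozoites; the read-out is not stated. The concentration is filed as 10 mM, unlikely as a test dose, so the dose is not known. The record gives no direction; compounds that gave an IC50 in retests scored well above the rest, so higher reads as lower viability. Strong results were mostly tested again. Of about 34,000 compounds tested this way, about 280 (0.84%) reached 50% or more in at least one test.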

Each number is a percent effect as filed.
The controls that fix the scale are not given in the record; negative values are as filed.
The compounds are a random part of those screened.
Two or more numbers in one place are separate tests of the same structure; such repeats can differ widely.

Result for Cc1nccn1CC1CCCN1S(=O)(=O)Cc1ccccc1F (centres undefined) was 4.359%.
Result for COc1cccc2cc(CNCc3ccc(N4CCCC4)nc3)oc12 was 29.11% and -70.5% and -61.54%.
Result for CC(C)c1nc(C2CCCN(C(=O)CCn3ccccc3=O)C2)no1 (centres undefined) was 10.98%.
Result for Cn1ncc2c(=O)[nH]c(CN3CCCC3c3cccc(F)c3)nc21 (centres undefined) was -2.913%.
Result for Cn1cc(CNc2cnn(CC3CCCO3)c2)c(-c2ccncc2)n1 (centres undefined) was -20.57%.
Result for N#Cc1ccc(OCCNCCn2cccn2)cc1 was 5.787%.
Result for COc1ccccc1C1CNC(=O)c2nc(-c3ncc[nH]3)[nH]c2C1 (centres undefined) was -16.35%.
Result for CC(C)(C)c1cc(NC(=O)CN2CCCC2Cn2cccn2)on1 (centres undefined) was 0.5402%.
Result for CCc1ccccc1CNC(=O)CNCC(F)(F)F was -8.324%.
Result for COCCN1CCC(c2ncc(C(=O)N3CCOCC3)c(C)n2)CC1 was 4.246%.
Result for [H][C@@]12CCCO[C@]1([H])[C@H](OCc1cccnc1)CN2C(=O)c1ccnnc1 was 4.513%.
Result for CS(=O)(=O)N1CCCC(c2cccc(-c3ccccc3F)n2)C1 (centres undefined) was 2.567%.
Result for NC(=O)c1cc(C2CCCN(CCc3ccccn3)C2)n[nH]1 (centres undefined) was 6.119%.
Result for CC(C)(NCC(=O)NCC1CC1)c1ccc2c(c1)OCCO2 was 19.44%.
Result for O=C(NC1CC1)c1cc(NC(=O)N2CCCC(O)C2)ccc1Cl (centres undefined) was -10.38%.
Result for COc1cc(N2CCC3(CC2)CN(CCO)c2ccccc23)ncn1 was 1.284%.
Result for Clc1cccc(OCCCN2CCOC(Cn3cncn3)C2)c1 (centres undefined) was 5.413%.
Result for Cc1cnc2c(S(=O)(=O)NCC3CC3)cccc2c1 was -8.528%.
Result for O=C(CCc1ccc(OC(F)(F)F)cc1)N1CCCS1(=O)=O was -0.5488%.
Result for Cc1nc(C)c(C(=O)NCCNC(=O)c2ccc(F)cc2F)s1 was -0.4177%.
Result for CNC(=O)C1Cc2ccccc2CN1CCc1cccs1 (centres undefined) was -4.71%.
Result for CCCN1CCC(NC(=O)c2ccc(F)cc2I)CC1 was 0.4479%.
Result for NC(=O)C1CCCN(Cc2c(-c3ccco3)[nH]c3ncccc23)C1 (centres undefined) was -7.227%.
Result for [H][C@@]12CN(C(=O)NC3CC3)C[C@]1([H])C(=O)N(c1ccccc1)C2 was 13.4%.
Result for CC(=O)c1c(F)cccc1NCC(O)c1ccc(F)c(F)c1 (centres undefined) was -10.45%.
Result for CN1CCOC(CNCc2cccc(OCC(F)(F)F)c2)C1 (centres undefined) was 6.826%.
Result for O=C(O)C(F)(F)F.[H][C@@]12CCN(S(=O)(=O)c3ccccc3)C[C@]1([H])[C@@H](CN(C)C)OC2 was -11.74%.
Result for [H][C@@]12OCCN(C(=O)C3=CCCC3)[C@@]1([H])CC[C@@H]2OCC1CC1 was 0.3247%.
Result for O=C(O)C(F)(F)F.[H][C@@]12CCCO[C@]1([H])[C@@H](OC)CN2C(=O)c1cccnc1 was -2.347%.
Result for [H][C@@]12CS(=O)(=O)C[C@]1([H])N(Cc1ccc3nsnc3c1)CCN2CCOC was -10.47%.
Result for CC(C)n1cc(C(=O)NCCCc2csc(N)n2)cn1 was -10.66%.
Result for O=C(c1n[nH]c2c1CCC2)N1CCCC1c1nc(-c2ccccn2)no1 (centres undefined) was -0.5476%.
Result for [H][C@@]12CCN(C(=O)c3ccoc3)C[C@@]1([H])O[C@H](c1ccncn1)C2 was -22.38%.
Result for O=C1NCCCCC1Sc1ccccc1F (centres undefined) was -1.557%.
Result for Cc1cccc(-n2cc(C(=O)N3CCCC(n4cccn4)C3)nn2)c1 (centres undefined) was 3.237%.
Result for CS(=O)(=O)N1CCN(C(=O)c2cncs2)CC(C(N)=O)C1 (centres undefined) was 0.1283%.
Result for O=C(O)C(F)(F)F.O=C(O)C(F)(F)F.[H][C@@]12COC[C@]1(COCc1ccncc1)CN(Cc1ccsc1)C2 was -7.729%.
Result for COc1ccc(OC)c(C(O)CNC(=O)Nc2cc(C)nn2C)c1 (centres undefined) was -2.024%.
Result for OC(COCc1ccc2c(c1)OCO2)CN1CC(n2cccn2)C1 (centres undefined) was 13.47%.
Result for COc1ccc2c(c1)CN(c1cc(N3CCCC3CO)ncn1)CC2 (centres undefined) was -18.73%.
Result for Cc1cc(C)n(CC2CCCN2C(=O)CCc2ccncc2)n1 (centres undefined) was 1.423%.
Result for N#Cc1ccsc1NC(=O)CN1CCn2c(nnc2C2CC2)C1 was 2.557%.
Result for O=C(CCN1CCNCC1)N1CCC2(CC1)c1ccccc1CC2O (centres undefined) was -7.632%.
Result for Cc1cn2c(=O)c(-c3ccnc(NC4CCOCC4)n3)cnc2s1 was 0.4234%.
Result for Cc1nc(C)n(C2CCCN(C(=O)c3cscn3)C2)n1 (centres undefined) was 16.42%.
Result for Cc1ccc(CN(C)C(=O)C(C)n2cncn2)o1 (centres undefined) was -8.324%.
Result for CC(NC(=O)NCCCOc1ccccc1F)c1nncn1C (centres undefined) was -5.351%.
Result for Cc1nc2ccccn2c1CN(Cc1cccnc1)CC1CCCO1 (centres undefined) was -16.88%.
Result for O=C(O)C(F)(F)F.[H][C@]12CCN(S(=O)(=O)c3cccs3)C[C@@]1([H])OCCN(CC)C2 was -9.185%.
Result for CC(C)=CCC1(CO)CCCN(S(=O)(=O)N2CCCC2)C1 (centres undefined) was 3.482%.
Result for Cc1cnn(CC2CCCCN2Cc2nc(-c3ccoc3)no2)c1 (centres undefined) was 19.84% and 9.204% and 10.72%.